# Experimental data published in publication PMC7819943, “Rice protein-binding microarrays: a tool to detect cis-acting elements near promoter regions in rice”.
# By UniProt entry, the sequences of proteins in these tests, tags left out.
# UniProt Q0JBA9, entry or part of it: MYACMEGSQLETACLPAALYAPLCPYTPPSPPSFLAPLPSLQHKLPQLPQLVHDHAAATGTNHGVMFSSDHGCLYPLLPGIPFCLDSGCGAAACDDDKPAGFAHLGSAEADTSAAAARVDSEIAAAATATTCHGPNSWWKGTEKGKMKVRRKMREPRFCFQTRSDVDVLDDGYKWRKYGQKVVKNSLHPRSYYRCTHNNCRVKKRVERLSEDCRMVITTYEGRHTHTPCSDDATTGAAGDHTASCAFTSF
# Some of the results follow.
# Target: OsWRKY34 (Oryza sativa, UniProt Q0JBA9 1-250)
# Experiment: protein-binding microarray (RPBM); PBS, 2% BSA, 51.3 ng/ul salmon testes DNA, 50 uM zinc acetate, 200 nM TF, 25 C, 1 h; high values mean tight binding
# Settings: protein: recombinant; tags: N-terminal polyhistidine and DsRed monomer fusion (pET32a); label: CyDye5-dUTP incorporated in the synthesized complementary strand; 3' TTTTT single-stranded linker to array surface; dsDNA, one strand shown
# Procedure, shortened: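 For the binding signal, per-feature fluorescence intensity was read in arbitrary units on an Axon 4000B scanner. Before scanning, a 2% BSA-blocked custom Agilent array made double-stranded with Cy5-dUTP was washed after 1 h at 25 °C with 200 nM protein and 50 µM zinc acetate. The proteins were Ni–NTA-purified transcription factors with N-terminal polyhistidine and DsRed fusions, expressed in E. coli BL21-CodonPlus.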
row,Sequence,binding signal
1,ACAGATAATCACCACCACCAATGTGGACCCACCCATTTTTCGGAGTCACCTAGTGCAG,8520 fluorescence intensity (a.u.)
2,CGTCTGGCCCTGCCACATGACATGCATGCGCCACGCACGACGGAGTCACCTAGTGCAG,8060 fluorescence intensity (a.u.)
3,CATTCACCTTGTCTCTAGTCCTCGTTCGATTAGCCGGCGACGGAGTCACCTAGTGCAG,8500 fluorescence intensity (a.u.)
4,CTCGCGCCACGCCACCCCACTGTCCCTGCACGCTGCAGCTCGGAGTCACCTAGTGCAG,9990 fluorescence intensity (a.u.)
5,TTCCTTTTGTCCTCCATGCTCTCTGTATGTCGGTATTTTACGGAGTCACCTAGTGCAG,10500 fluorescence intensity (a.u.)
6,TTATTGTGACTTGATTCGTCATTAAATATTTTTAAAATATCGGAGTCACCTAGTGCAG,8380 fluorescence intensity (a.u.)
7,ACAATTATGTTACCGCGATCGCGAGATTTCTCTATATCTACGGAGTCACCTAGTGCAG,8192 fluorescence intensity (a.u.)
8,GCAAAACCTTCATGCTCATCGATATTACTCTTATCGCCAACGGAGTCACCTAGTGCAG,9590 fluorescence intensity (a.u.)
9,ACTGATATCTCTCTAGTCTCTACACCTCTTCTCTTCCCCTCGGAGTCACCTAGTGCAG,11100 fluorescence intensity (a.u.)
10,TCCTAGTCGGCGCGTACGCGTCAGGGACGCACGTTTTTTTCGGAGTCACCTAGTGCAG,10000 fluorescence intensity (a.u.)
11,ACCACACAACACTGCACTAGTAAACTCTTGCTTCTTCTCTCGGAGTCACCTAGTGCAG,8790 fluorescence intensity (a.u.)
12,ATATATTTTCTACGTACTATACTACTACTCATGTAGTTCCCGGAGTCACCTAGTGCAG,9880 fluorescence intensity (a.u.)
13,TTTGTGCCCTCAACACCTCGCAGGTTCGACCGGTCGCTTCCGGAGTCACCTAGTGCAG,8080 fluorescence intensity (a.u.)
14,CAAAGTCTCAATTTGTCCCAGTTTCTCCCTGTCCACTTCTCGGAGTCACCTAGTGCAG,8700 fluorescence intensity (a.u.)
15,TATTTGTCTATAAACTTAGTCAAACTTAAAACAGTTTGACCGGAGTCACCTAGTGCAG,9860 fluorescence intensity (a.u.)
16,TTCTGTTTAATCCATCTTGATTGTATTTCATTAGTTGACACGGAGTCACCTAGTGCAG,10900 fluorescence intensity (a.u.)
17,AGTCAACAACAGGCGGGAGGAGGGGAGGAGGCGGAGGCAGCGGAGTCACCTAGTGCAG,12200 fluorescence intensity (a.u.)
18,ATCCTTTCTTCCTTGCCTAAGTTCATGAGTACCGAAAGGTCGGAGTCACCTAGTGCAG,9560 fluorescence intensity (a.u.)
19,GGTCCACTCGAAGAAGGTTTTAGTTGCCATCGCCATTTCCCGGAGTCACCTAGTGCAG,10700 fluorescence intensity (a.u.)
20,GTTTCCTGGTAACTTTTCCACCTTTCCATTTCTGCAGAACCGGAGTCACCTAGTGCAG,8090 fluorescence intensity (a.u.)
21,ACTTGTTCCCATGCACATATGTGCTTACCTTGTGCCTTGTCGGAGTCACCTAGTGCAG,8330 fluorescence intensity (a.u.)

# Looked up above.
# binding signal, ACAATTATGTTACCGCGATCGCGAGATTTCTCTATATCTACGGAGTCACCTAGTGCAG reads 8192 fluorescence intensity (a.u.)
# binding signal, CTCGCGCCACGCCACCCCACTGTCCCTGCACGCTGCAGCTCGGAGTCACCTAGTGCAG reads 9990 fluorescence intensity (a.u.)
# binding signal, GCAAAACCTTCATGCTCATCGATATTACTCTTATCGCCAACGGAGTCACCTAGTGCAG reads 9590 fluorescence intensity (a.u.)
# binding signal, ACTTGTTCCCATGCACATATGTGCTTACCTTGTGCCTTGTCGGAGTCACCTAGTGCAG reads 8330 fluorescence intensity (a.u.)
# binding signal, GGTCCACTCGAAGAAGGTTTTAGTTGCCATCGCCATTTCCCGGAGTCACCTAGTGCAG reads 10700 fluorescence intensity (a.u.)
# binding signal, ACAGATAATCACCACCACCAATGTGGACCCACCCATTTTTCGGAGTCACCTAGTGCAG reads 8520 fluorescence intensity (a.u.)

# Carrying on.

row,Sequence,binding signal
1,TCGGTACTCTTGCTGAAGCAATCCTTTCTTCCTTGCCTAACGGAGTCACCTAGTGCAG,9140 fluorescence intensity (a.u.)
2,TTATGTGTGAACCGTACGCTACTATTCATACTTCGAATTTCGGAGTCACCTAGTGCAG,8320 fluorescence intensity (a.u.)
3,CGCGTCAATCACGCTAGCCCACCGGCGCCTTTCCGCCACGCGGAGTCACCTAGTGCAG,8350 fluorescence intensity (a.u.)
4,TGTTATCCCTTCCCATTCACCTCTCCCATTCCTTCTCTTCCGGAGTCACCTAGTGCAG,8760 fluorescence intensity (a.u.)
5,TTCAACGTTTGACCGTCCGTCTTATTTGAAAAATTTTTATCGGAGTCACCTAGTGCAG,8820 fluorescence intensity (a.u.)
6,CCGCGGCCCAATAGCTCTTAGCCCATTGCCATCCGCCATCCGGAGTCACCTAGTGCAG,9820 fluorescence intensity (a.u.)
7,TTCCATTTCTATATTTTCTTCTATTTTATGTTTTTTACATCGGAGTCACCTAGTGCAG,8240 fluorescence intensity (a.u.)
8,CCGCCCACACACCCACCACCATTTCCTCCTCCTTCTTCTACGGAGTCACCTAGTGCAG,10200 fluorescence intensity (a.u.)
9,TATTTACAATTGTGCGTATATTATGAGCGTCTGTCTTTGTCGGAGTCACCTAGTGCAG,9350 fluorescence intensity (a.u.)
10,CCTATTACGACGTCGCCGGCCACCAGCGCGCCTGCCCGCACGGAGTCACCTAGTGCAG,8400 fluorescence intensity (a.u.)
11,GATTTTACCTCAGTTTCCGTTAGCACGCTTTTCAAACTATCGGAGTCACCTAGTGCAG,8690 fluorescence intensity (a.u.)
12,CGATCGACAATCTGCTCTATATTTTGCTTCACAGCTTCCGCGGAGTCACCTAGTGCAG,9740 fluorescence intensity (a.u.)
13,TCTCATCCGGCCAGGTTCCAAGCAGCCAGAACTTACTTATCGGAGTCACCTAGTGCAG,9540 fluorescence intensity (a.u.)
14,CTCTTCCACGTCAACATCCTGCAGGACCAGCTCATCCGCGCGGAGTCACCTAGTGCAG,8690 fluorescence intensity (a.u.)
15,GAGAGAGAGAAGTCCAAGCCGCAGAACCATTACAGTGTGCCGGAGTCACCTAGTGCAG,8530 fluorescence intensity (a.u.)
16,AATTCTTGCCATTTTGGAGCGGTGCAACTTTTTGCCATATCGGAGTCACCTAGTGCAG,10200 fluorescence intensity (a.u.)
17,GCTTGGTGGCAGCGACGACTGTGGTGGAGGTGGTGTCGTCCGGAGTCACCTAGTGCAG,8240 fluorescence intensity (a.u.)
18,GGGCTGGAGATGGAGATGGAGATGGAGATGGAGGGTGGGTCGGAGTCACCTAGTGCAG,8660 fluorescence intensity (a.u.)
19,CTTAGCAATTATTTTTGTCACATCAGTAGGTTCATTTAACCGGAGTCACCTAGTGCAG,8230 fluorescence intensity (a.u.)
20,TGTCGTTGTTATTTACTTATTCCCATGTGAACCTGCTTCTCGGAGTCACCTAGTGCAG,11900 fluorescence intensity (a.u.)
21,ACCTAAAAGCGCCAACCGCCGTGACCGTTCCCTGCACCCTCGGAGTCACCTAGTGCAG,11500 fluorescence intensity (a.u.)

row,Sequence,binding signal
1,AGACTTTCTAGCATTACCCACATTCATACAAATGAATCTACGGAGTCACCTAGTGCAG,8580 fluorescence intensity (a.u.)
2,ATGGTCAAACATGTGCTAAAAAGTCAACGGTGTCAAACATCGGAGTCACCTAGTGCAG,17700 fluorescence intensity (a.u.)
3,TCCTAGGTACGCCGTGCGCGGCTGGGCAACACTCACTGACCGGAGTCACCTAGTGCAG,8440 fluorescence intensity (a.u.)
4,TCTTCCCATTTTCCACCGAGGAACGTGCCTGGGACGACGACGGAGTCACCTAGTGCAG,8160 fluorescence intensity (a.u.)
5,ATTTCACGGCTTTTCCCCGTGCACCGTCCATATTTTTGTTCGGAGTCACCTAGTGCAG,10100 fluorescence intensity (a.u.)
6,GGACCACCCTGCCGCGGACATCACCCATCTCGTCATCTCCCGGAGTCACCTAGTGCAG,9570 fluorescence intensity (a.u.)
7,GCTTATGCTATTGTTGCTTCACCGCCGCTGCCTCCTCTTGCGGAGTCACCTAGTGCAG,8810 fluorescence intensity (a.u.)
8,CACATACATACATACAGACATACTACTATCAGCATGTACACGGAGTCACCTAGTGCAG,10900 fluorescence intensity (a.u.)
9,AATTGTCCAGGCACTCATCAGGCATTTCAGCTAACAAGCTCGGAGTCACCTAGTGCAG,8510 fluorescence intensity (a.u.)
10,CGTATTGCACAGAGGGTGTCATCTTCCATTTGCCTTGTAACGGAGTCACCTAGTGCAG,8520 fluorescence intensity (a.u.)
11,CCGCCTCGGCTCGATCCGCCCATATATTTCCCACGCATTCCGGAGTCACCTAGTGCAG,10000 fluorescence intensity (a.u.)
12,CTCATCGTTCGCGTGCCCTTGTCGCTCGCGGCGACGACACCGGAGTCACCTAGTGCAG,8960 fluorescence intensity (a.u.)
13,ACACAAAATTGATGATGCACCTACCGGTCCGGTAACAATACGGAGTCACCTAGTGCAG,8680 fluorescence intensity (a.u.)
14,TTTCGTTTTGCTTGCTGTGGGCAGGGGCAGGGGAGGCGGTCGGAGTCACCTAGTGCAG,15700 fluorescence intensity (a.u.)
15,CCCACCATCCTCATCACCACCACCACCACCGCCGCCGCCCCGGAGTCACCTAGTGCAG,8750 fluorescence intensity (a.u.)
16,CTCTCTCAAACCTTTGGCATCTTGGACACTATATATATCCCGGAGTCACCTAGTGCAG,8780 fluorescence intensity (a.u.)
17,CTGCATCTGCATATGACCTCTGACTTTCGCCTCTCGCGCCCGGAGTCACCTAGTGCAG,8620 fluorescence intensity (a.u.)
18,GAAAAGATGACCCCATATTCTCGTGTATTCTTTGACACTTCGGAGTCACCTAGTGCAG,9540 fluorescence intensity (a.u.)
19,TCGACCTCCACTCCTCTCCACCCATCGCGGCCATAAGACGCGGAGTCACCTAGTGCAG,8590 fluorescence intensity (a.u.)
20,GGTATTATATTGTTCTGACGATCTTGGTGTGGCTTATGTCCGGAGTCACCTAGTGCAG,8820 fluorescence intensity (a.u.)
21,CCCAGAGCTTCGCCTCGACCTCGCCTTCGCCTTCGTCGCTCGGAGTCACCTAGTGCAG,8390 fluorescence intensity (a.u.)

row,Sequence,binding signal
1,ATTGATGTTTTGTGGCTGTGTGGTGTCGAGAAATGAAATTCGGAGTCACCTAGTGCAG,9330 fluorescence intensity (a.u.)
2,TGCGCTCCACTTCACTATATACTCCACTTGTGTTGCTACACGGAGTCACCTAGTGCAG,10500 fluorescence intensity (a.u.)
3,TTGCAATTGCAACATGCAGCGGCGAAGACGATCGATCACTCGGAGTCACCTAGTGCAG,8280 fluorescence intensity (a.u.)
4,TGACTTTTTAGTACGTGTTTGATCATTCGTCTTATTCAAACGGAGTCACCTAGTGCAG,10800 fluorescence intensity (a.u.)
5,ATCCGCCTCGCCCCATTCTCCATCGTTTCGTCTCCTCTCTCGGAGTCACCTAGTGCAG,10100 fluorescence intensity (a.u.)
6,TCTCTCTCTCTCTCTCTCCTTATTTTGGCATTGTGTCGTGCGGAGTCACCTAGTGCAG,9620 fluorescence intensity (a.u.)
7,ATATTCTGGTGTTTTTGTGGCAACCCTGTTGTAAATTGGTCGGAGTCACCTAGTGCAG,10200 fluorescence intensity (a.u.)
8,TGTTCGTATTTTAAACTCTCTTTTTTTTTCAGTGGTAGATCGGAGTCACCTAGTGCAG,9700 fluorescence intensity (a.u.)
9,TCCCGCGCTGCCACCTCCTCTCATCACCTTGAGCCGACTCCGGAGTCACCTAGTGCAG,8430 fluorescence intensity (a.u.)
10,ATGTGTTGGTACTGGTTTTAGGTTTGAGTGACGCGATCCACGGAGTCACCTAGTGCAG,8110 fluorescence intensity (a.u.)
11,TAAATGTCACTGTTAACTTTTAGTCACACATTTGATCATTCGGAGTCACCTAGTGCAG,9770 fluorescence intensity (a.u.)
12,TTTCCTATTTTCGCTTTAGGTGCCAAATTTAGGGTTTTATCGGAGTCACCTAGTGCAG,8970 fluorescence intensity (a.u.)
13,TAGTATGAGTGAGTGCTGCCTTTTGCCTTTTTCGAGGTTACGGAGTCACCTAGTGCAG,8780 fluorescence intensity (a.u.)
14,TTGCAGCTGTCCTCTCTACCTTAACCCTTTGACCAGTGCTCGGAGTCACCTAGTGCAG,9130 fluorescence intensity (a.u.)
15,ACGCTTGCAGTGTTTACAGTTTGTTTGTTTTTTGCCGAGACGGAGTCACCTAGTGCAG,9640 fluorescence intensity (a.u.)
16,TCATCGGCCCCAGACCATTTGGCCATCTATACTTATCTGGCGGAGTCACCTAGTGCAG,8500 fluorescence intensity (a.u.)
17,GTAATCAAGCAATGTTGTTTTCTTCTACATTTCAAATCCACGGAGTCACCTAGTGCAG,8520 fluorescence intensity (a.u.)
18,CGTCCACGTCCATCTCCGCCGCTGACAGCACCAGCTCTTCCGGAGTCACCTAGTGCAG,10100 fluorescence intensity (a.u.)
19,ATCTCATCTCACCCTCTCCTCGGCCGCGTAAATCCCATAACGGAGTCACCTAGTGCAG,9740 fluorescence intensity (a.u.)
20,GTCTTTCCTTATCCGGAACTTCATCTATATCCGAGGTCAGCGGAGTCACCTAGTGCAG,8970 fluorescence intensity (a.u.)
21,ATCTGGTTTGGTTGAATCGATCGAGAGGTGGGGAGGGGAGCGGAGTCACCTAGTGCAG,13900 fluorescence intensity (a.u.)
